# Test results published in PubChem BioAssay AID2551 (National Center for Advancing Translational Sciences (NCATS), 2010).
# Sequences of proteins named here, by UniProt entry; tags and fusion partners are left off. A change or cut given only in a name is not applied to a line headed by its entry.
# UniProt P51450: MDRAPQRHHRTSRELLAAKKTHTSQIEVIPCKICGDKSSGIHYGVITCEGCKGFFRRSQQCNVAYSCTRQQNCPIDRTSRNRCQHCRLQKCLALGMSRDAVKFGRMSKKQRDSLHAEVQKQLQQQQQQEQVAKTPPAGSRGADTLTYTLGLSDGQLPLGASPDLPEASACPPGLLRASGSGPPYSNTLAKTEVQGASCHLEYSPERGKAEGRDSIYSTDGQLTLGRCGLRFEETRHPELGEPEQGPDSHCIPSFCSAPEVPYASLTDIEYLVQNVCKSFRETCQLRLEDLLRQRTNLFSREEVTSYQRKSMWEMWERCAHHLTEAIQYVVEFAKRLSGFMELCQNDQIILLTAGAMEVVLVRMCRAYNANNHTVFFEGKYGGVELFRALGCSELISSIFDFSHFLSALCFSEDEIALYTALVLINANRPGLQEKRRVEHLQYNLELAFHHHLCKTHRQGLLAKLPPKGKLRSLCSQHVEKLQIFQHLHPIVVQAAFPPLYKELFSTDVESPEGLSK
# Out of some 310,000 compounds screened, about 17,000 (5.5%) were called active. Inconclusive results, whose numbers are uncertain, are shown with a selection of clear calls. The call rests on the fitted dose curve; in most records, active means well fitted inhibition curve with a large enough effect; inconclusive means small, poorly fitted or top-dose-only effect, or effect the other way; inactive means no such curve, though single readings can be large or run the other way. Potencies of inconclusive entries are doubtful fits and often do not repeat.
# Molecular target: Nuclear receptor ROR-gamma (Mus musculus) (UniProt P51450)
# Test: qHTS for inhibitors of ROR gamma transcriptional activity; further: nearly all actives have a fitted effect of over 60% in size
# Conditions: Drosophila S2 Gal4-RORgamma UAS-luciferase reporter, 20 h; activity change, negative = inhibition: at 53.6 µM (top of the series)
# Method in brief: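 Luciferase reporter read in Schneider cells carrying Gal4-RORγ (mouse) and UAS-Photinus luciferase; cells given compound 1 h before 700 uM copper sulfate induction, then incubated 20 h at ambient temperature.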
# On the % scale 0 is the no-effect control and ±100 the full control effect; potency means the concentration at half of the fitted maximal effect.
SMILES,Potency,"activity change, negative = inhibition"
Cc1cc(C)c(S(=O)(=O)Nc2nnc(CC(C)C)s2)c(C)c1,"inconclusive: 35.5 µM [inhibitor, single point]",–
Cc1ccc(-c2onc3ccc(C(=O)O)cc23)cc1,"inconclusive: 11.2 µM [inhibitor, single point]",–
COc1ccc2cc(C(=O)C3CCCN(Cc4ccccn4)C3)ccc2c1 (centres undefined),active: 3.16 µM,–
Cc1ccc(-c2nc(CS(=O)CC(=O)NCc3ccc(F)cc3)c(C)o2)cc1 (centres undefined),active: 11.2 µM,–
CC(=O)N1CCCc2cc(S(=O)(=O)N3CCCC(C(=O)Nc4ccccc4C)C3)ccc21 (centres undefined),–,inactive: -2.75%
Cc1ccc(-c2c(C(=O)N/N=C/c3c[nH]c4ccccc34)nnn2-c2nonc2N)cc1,"inconclusive: 15.8 µM [inhibitor, single point]",–
S=C(NCCc1ccccc1)N/N=C/c1ccc(Cl)cc1,"inconclusive: 20 µM [inhibitor, partial curve, poor fit]",–
CCCn1c2ccccc2c2nnc(SCC(=O)Nc3ncccn3)nc21,–,inactive: 16.7%
Cc1nn(Cc2ccccc2)c(C)c1NC(=O)c1cc(-c2cccs2)on1,"inconclusive: 12.6 µM [activator, single point]",–
COc1cccc(NC(=S)/C(=C(\[O-])c2cc(C)n(-c3ccccc3F)c2C)[n+]2ccc(N(C)C)cc2)c1,–,inactive: 31.8%
CC1(C)Cc2c(C#N)c(N3CCOCC3)nc(-c3ccccc3)c2CO1,"inconclusive: 35.5 µM [activator, single point]",–
CCOc1cc(CO)cc(Br)c1OCC(N)=O,–,inactive: -5.2%
Cc1cccc(-c2c3c(=O)n(C)c(=O)n(C)c3cn2-c2ccccc2O)c1,"inconclusive: 35.5 µM [inhibitor, single point]",–
O=C(Nn1c(COc2ccccc2)nc2ccccc2c1=O)C(Cl)(Cl)Cl,"inconclusive: 22.4 µM [inhibitor, single point]",–
CC1=C(/C=C/C(C)=C/C=C/C(C)=C/C=C/C=C(C)/C=C/C=C(C)/C=C/C(=O)[C@]2(C)C[C@@H](O)CC2(C)C)C(C)(C)C[C@H](O)C1,"inconclusive: 12.6 µM [inhibitor, single point]",–
Cn1cc(Cl)c(C(=O)OCC(=O)Nc2nc(-c3ccc(Br)cc3)cs2)n1,"inconclusive: 35.5 µM [activator, single point]",–
O=C(/C=C/c1ccc(OCCCF)cc1)Nc1ccnc(-c2ccncc2)n1,"inconclusive: 35.5 µM [inhibitor, single point]",–
CCc1ccccc1NC(=O)Nc1cccn(Cc2ccccc2F)c1=O,"inconclusive: 35.5 µM [activator, single point]",–
CC(C)C(=O)c1c(C(C)C)nn2ccccc12,"inconclusive: 17.8 µM [activator, partial curve]",–
O=C(c1cccc([N+](=O)[O-])c1)N1CCN(C/C=C/c2ccccc2)CC1,"inconclusive: 6.31 µM [activator, full curve, poor fit]",–
CCC1CCCCN1C(=S)NC(=O)c1ccc(F)c(S(=O)(=O)N2CCOCC2)c1 (centres undefined),active: 0.562 µM,–
CC(=O)Nc1ccc(S(=O)(=O)N2CCN(Cc3ccccn3)CC2)cc1,–,inactive: 15.4%
O=C(Nc1ccccn1)Nc1ccccc1[N+](=O)[O-],"inconclusive: 7.08 µM [activator, full curve, poor fit]",–

SMILES,Potency,"activity change, negative = inhibition"
Cn1nc(-c2ccc(C(=O)Nc3ccc(F)cc3)cc2)c2ccccc2c1=O,"inconclusive: 28.2 µM [inhibitor, single point]",–
Oc1ccc(C[C@H]2CNC(=S)N2CCc2cc(C(F)(F)F)cc(C(F)(F)F)c2)cc1,active: 17.8 µM,–
C/C(=N/NC(=O)c1ccc(Br)o1)c1cccs1,"inconclusive: 35.5 µM [inhibitor, single point]",–
NC(N)=N/N=C/c1ccc(OCc2ccc(Cl)cc2Cl)cc1,"inconclusive: 35.5 µM [inhibitor, single point]",–
Cn1cc(C(=O)c2ccc(Cl)cc2Cl)cc1C(=O)N/N=C(\N)COc1ccc(Cl)cc1Cl,active: 1.41 µM,–
COc1ccc(OC)c(NC(=O)c2ccc(NS(C)(=O)=O)cc2)c1,–,inactive: -6.32%
COc1cccc(OC)c1C(=O)Nc1ccc(N2CCCC2)cc1,–,inactive: -20% [at 1.91 µM]
CCC(C)Sc1nnc(CNC(=O)C23CC4CC(CC(C4)C2)C3)n1C1CCCCC1 (centres undefined),active: 11.2 µM,–
COc1cccc(CNc2cccc(C(F)(F)F)c2)c1O,"inconclusive: 11.2 µM [activator, partial curve]",–
CC1CC[C@@]23CCC4(C)[C@@]5(C)CCC6C(C)(C)C(O)CC[C@@]6(C)C5C=C[C@@]4(OC2=O)C3C1C (some centres undefined),"inconclusive: 3.16 µM [inhibitor, partial curve]",–
O=c1[nH]c(N/N=C\c2ccc(F)cc2)nc2ccccc12,active: 10 µM,–
Cc1nnsc1C(=O)NC1CCCc2c1cnn2-c1ccc(F)cc1F (centres undefined),"inconclusive: 1.58 µM [activator, partial curve]",–
COc1ccc(S(=O)(=O)N(C)C)cc1NS(=O)(=O)c1ccc(F)c(F)c1F,active: 4.47 µM,–
CC12CC3CC(C)(C1)CC(C(=O)N1CCN(C(=O)c4ccco4)CC1)(C3)C2,"inconclusive: 35.5 µM [inhibitor, single point]",–
NC(=O)c1c(NC(=O)c2cccnc2Cl)sc2c1CCCC2,"inconclusive: 3.16 µM [activator, single point]",–
Cc1c(Br)c([N+](=O)[O-])nn1CC(=O)Nc1nccs1,"inconclusive: 20 µM [inhibitor, single point]",–
CCCOc1c(OC)cc(Cl)cc1C1NC(=O)NC(C)=C1C(=O)NCc1ccccc1 (centres undefined),"inconclusive: 2.51 µM [inhibitor, single point]",–
CCC1CC=CC2C1C(=O)N(Cc1ccccc1)C2c1cc(C)ccc1F (centres undefined),"inconclusive: 31.6 µM [activator, single point]",–
CNC(=S)N1N=C(c2ccc(C)cc2)CC1c1cc(OC)ccc1OC (centres undefined),active: 12.6 µM,–
CCOC(=O)C1CCCN(c2ncnc3c2cnn3-c2cccc(C)c2)C1 (centres undefined),–,inactive: -3.66%
COC(=O)Cc1ccc(NC(=S)NCc2ccccc2Cl)cc1,"inconclusive: 20 µM [inhibitor, single point]",–
N#Cc1cccc(-n2nnnc2-c2ccc3c(c2)OCO3)c1,–,inactive: -8.74%
O=c1c(F)cn(C2CCCO2)c(=O)n1Cc1ccccc1F (centres undefined),"inconclusive: 11.2 µM [activator, partial curve]",–

SMILES,Potency,"activity change, negative = inhibition"
COc1ccc(-n2c(C)nc3cc(C(=O)NCc4ccc5c(c4)OCO5)ccc32)cc1,–,inactive: 11.1%
COc1cc(C(=S)N2CCOCC2)ccc1OC(=O)c1cccc(C)c1,"inconclusive: 35.5 µM [activator, single point]",–
Cc1ccc2c(CN(C)Cc3ccc(Cl)cc3Cl)cc(=O)oc2c1,–,inactive: 0.701%
Cc1cccc(NC(=O)C2C(c3ccccc3)C2(Cl)Cl)c1 (centres undefined),–,inactive: 23.5%
O=C(CCc1ccc(Oc2cc([N+](=O)[O-])cc([N+](=O)[O-])c2)cc1)N1CCCCC1,"inconclusive: 12.6 µM [inhibitor, partial curve, poor fit]",–
O=C(CCOc1ccccc1)NCc1ccccc1,–,inactive: 5.22% [at 0.365 µM]
CCCc1cc(C(=O)Nc2cccc([N+](=O)[O-])c2)cs1,"inconclusive: 15.8 µM [activator, partial curve]",–
COC(=O)c1sc(S(=O)(=O)N2CCN(c3ccccc3)CC2)c(C(=O)OC)c1C,"inconclusive: 35.5 µM [activator, single point]",–
Cc1cc(C)c2c(n1)nn1c(N3CCN(c4ccccc4)CC3)cc(C)nc21,"inconclusive: 1.26 µM [inhibitor, full curve, poor fit]",–
CN1C2CCC1CC(NS(=O)(=O)c1cc(Cl)c(Cl)cc1Cl)C2 (centres undefined),–,inactive: -12%
CCN(CC)S(=O)(=O)c1cccc(NC2=NCCCCC2)c1,"inconclusive: 5.01 µM [activator, single point]",–
O=S(=O)(NCc1cn2ccsc2n1)c1ccc(Oc2ccccc2)cc1,"inconclusive: 11.2 µM [activator, partial curve, poor fit]",–
O[C@@H]1[C@@H]2c3cc4c(cc3CN3CCC(=C[C@@H]1O)[C@H]23)OCO4,"inconclusive: 7.94 µM [inhibitor, partial curve, poor fit]",–
Cc1cccc(-c2ocnc2C(=O)Nc2ccccc2NC(=O)c2ccccn2)c1,active: 0.562 µM,–
Cc1ccc(Cl)cc1NC(=O)CSC(N)=O,"inconclusive: 35.5 µM [inhibitor, single point]",–
CC(C)COc1ccc(C(=O)CCN2CCCCC2)cc1,active: 7.08 µM,–
CN(C)S(=O)(=O)c1cccc(-n2sc3ccccc3c2=O)c1,"inconclusive: 35.5 µM [inhibitor, single point]",–
COC(=O)c1ccccc1NC(=O)C/C(C)=N/NC(=O)Cc1ccc(Cl)cc1,"inconclusive: 12.6 µM [inhibitor, single point]",–
CCOC(=O)C1(Cc2ccccc2C(F)(F)F)CCN(C(C)CSC)CC1 (centres undefined),"inconclusive: 11.2 µM [inhibitor, single point]",–
COc1cc(NC(=O)c2ccc([N+](=O)[O-])o2)ccc1NC(=O)c1cccs1,"inconclusive: 6.31 µM [inhibitor, single point]",–
O=C(Nc1nccs1)c1ccc(Cl)c([N+](=O)[O-])c1,active: 6.31 µM,–
C=CCn1c(-c2ccoc2C)n[nH]c1=S,"inconclusive: 15.8 µM [inhibitor, single point]",–
O=C(N/N=C/c1cccs1)c1cc(-c2ccc3ccccc3c2)n[nH]1,active: 3.16 µM,–

# Shown as tab-separated lines: entries from further up
SMILES	Potency	activity change, negative = inhibition
COc1ccc(-n2c(C)nc3cc(C(=O)NCc4ccc5c(c4)OCO5)ccc32)cc1	–	inactive: 11.1%
COc1cc(C(=S)N2CCOCC2)ccc1OC(=O)c1cccc(C)c1	inconclusive: 35.5 µM [activator, single point]	–
Cc1ccc2c(CN(C)Cc3ccc(Cl)cc3Cl)cc(=O)oc2c1	–	inactive: 0.701%
